{"source": "PubChem BioAssay AID1117361", "about": "(Southern Research Institute, 2015)", "note": "The whole screen tested about 3,600 compounds, of which about 900 (25%) were called active. No rule for the calls is given here. Only a part is listed here, and it is no random draw. Potency and affinity values are given separately."}
{"molecular_target": "Protein Tat (Human immunodeficiency virus type 1 group M subtype B (isolate HXB2)) (UniProt P04608)", "assay": "HIV-1 Tat–TAR interaction blockers – biochemical, fluorescence polarization, FAM-labeled TAR RNA, counter-screen for Vif-APOBEC3G degradation inhibitor project, dose response (AID 1117361)", "settings": "Tat-TAR RNA binding; at 100 µM (top of the series)"}
{"molecule": "Cn1cccc1/C=C1\\C(=O)NC(=O)N(Cc2ccccc2)C1=O", "inhibition": "inactive: 75.3%"}
